Results deposited as PubChem BioAssay AID602196 (INSERM, 2012).
The whole screen tested about 23,000 reagents; shown is a part drawn at random. 455 of them (2%) were called active. 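Active includes both protection and sensitisation; some change values fall well beyond the stated -50 to +50 range.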 Unmarked entries are inactive. Further read-outs or replicates are left out here. Not stated in the record: the amount of reagent.

Test: 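Modifiers of cisplatin sensitivity in A549 cells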
Cells: human A549 lung cancer cells
Reagents: siRNA pair against human genes
Timing: 48 h transfection before cisplatin; time from cisplatin to read-out not stated
Treatment: cisplatin at a dose killing half of control-siRNA cells; exact dose and duration not given
Detection: 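Cisplatin cell death as a shift from the 50% death seen with control siRNA; siRNAs toxic or growth-blocking alone scored 0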
Scale: two-siRNA summed score (-2 to +2): higher = both siRNAs protect from cisplatin killing; -2 means both sensitise; mean protection from cisplatin (shift in death) and protection from cisplatin (shift in death), siRNA C: higher = protection from cisplatin killing
Rule for the call: 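siRNAs harmful alone (LDH or WST-1) get 0; others get +1 for less and -1 for more cisplatin killing; genes are active when the two siRNAs give the same sign, summing to ±2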
Meaning of the calls: active = both siRNAs shift cisplatin killing the same way; inactive = no consistent shift, or siRNA harmful alone

gene symbol | PubChem SID | two-siRNA summed score (-2 to +2) | mean protection from cisplatin (shift in death) (%) | protection from cisplatin (shift in death), siRNA C (%)
IRGQ (immunity related GTPase Q) | SID131514681 | 0 | 8.1 | 3
CCDC74B (coiled-coil domain containing 74B) | SID131522725 | 1 | 22.4 | 17.7
NEU1 (neuraminidase 1) | SID131510285 | 0 | 3.1 | 6.1
TRIM50 (tripartite motif containing 50) | SID131514401 | 0 | 7.8 | 20.6
B3GAT2 (beta-1,3-glucuronyltransferase 2) | SID131519591 | 1 | 6.5 | 12.6
SIRT1 (sirtuin 1) | SID131504171 | 0 | -6.3 | -5.1
AP1M1 (adaptor related protein complex 1 subunit mu 1) | SID131508717 | 0 | 1.4 | 6.5
LOC391813 (zDHHC palmitoyltransferase 3 pseudogene) | SID131516631 | 0 | 11.3 | -6.4
UBE2V1 (ubiquitin conjugating enzyme E2 V1) | SID131505045 | 0 | -3.9 | -3.9
TFE3 (transcription factor binding to IGHM enhancer 3) | SID131516701 | 0 | 11.4 | -5.7
RNFT2 (ring finger protein, transmembrane 2) | SID131516057 | 0 | 10.2 | 3.6
HSD17B6 (hydroxysteroid 17-beta dehydrogenase 6) | SID131500734 | -1 | -16.9 | -26.2
SELENOH (selenoprotein H) | SID131509535 | 0 | 2.2 | 8.4
SPRR2D (small proline rich protein 2D) | SID131511435 | 0 | 4.4 | 9.8
HSPB3 (heat shock protein family B (small) member 3) | SID131512829 | 0 | 5.9 | 14.4
KIAA1586 | SID131512217 | 0 | 5.2 | 5.6
PLEKHB2 (pleckstrin homology domain containing B2) | SID131512446 | 0 | 5.5 | -0.3
KLHL14 (kelch like family member 14) | SID131514665 | 0 | 8.1 | 13.3
KIF6 (kinesin family member 6) | SID131503216 | 0 | -12 | 10.7
ADCYAP1 (adenylate cyclase activating polypeptide 1) | SID131502250 | -1 | -4 | -13.5
CPSF4 (cleavage and polyadenylation specific factor 4) | SID131503717 | 0 | -8.2 | -8.3
SOX1 (SRY-box transcription factor 1) | SID131521902 | 1 | 15.4 | -7.9
ACTN2 (actinin alpha 2) | SID131520053 | 1 | 8.5 | 3.9
CHAF1A (chromatin assembly factor 1 subunit A) | SID131516436 | 0 | 10.9 | 18.9
BNIP2 (BCL2 interacting protein 2) | SID131519054 | 1 | 1.7 | -11
FRG2C (FSHD region gene 2 family member C) | SID131511720 | 0 | 4.7 | 3.6
SFXN3 (sideroflexin 3) | SID131517975 | 0 | 15.7 | 15.4
SNRPB2 (small nuclear ribonucleoprotein polypeptide B2) | SID131511214 | 0 | 4.1 | 7.3
PKNOX1 (PBX/knotted 1 homeobox 1) | SID131511123 | 0 | 4 | 8.7
AHCYL2 (adenosylhomocysteinase like 2) | SID131519477 | 1 | 5.8 | 18.6
FRMD5 (FERM domain containing 5) | SID131503556 | 0 | -9.3 | -10.2

Part of the list above, reformatted.
KIAA1586 [SID131512217] | two-siRNA summed score (-2 to +2) = 0; mean protection from cisplatin (shift in death) (%) = 5.2; protection from cisplatin (shift in death), siRNA C (%) = 5.6
PLEKHB2 (pleckstrin homology domain containing B2) [SID131512446] | two-siRNA summed score (-2 to +2) = 0; mean protection from cisplatin (shift in death) (%) = 5.5; protection from cisplatin (shift in death), siRNA C (%) = -0.3
KLHL14 (kelch like family member 14) [SID131514665] | two-siRNA summed score (-2 to +2) = 0; mean protection from cisplatin (shift in death) (%) = 8.1; protection from cisplatin (shift in death), siRNA C (%) = 13.3
KIF6 (kinesin family member 6) [SID131503216] | two-siRNA summed score (-2 to +2) = 0; mean protection from cisplatin (shift in death) (%) = -12; protection from cisplatin (shift in death), siRNA C (%) = 10.7
ADCYAP1 (adenylate cyclase activating polypeptide 1) [SID131502250] | two-siRNA summed score (-2 to +2) = -1; mean protection from cisplatin (shift in death) (%) = -4; protection from cisplatin (shift in death), siRNA C (%) = -13.5
CPSF4 (cleavage and polyadenylation specific factor 4) [SID131503717] | two-siRNA summed score (-2 to +2) = 0; mean protection from cisplatin (shift in death) (%) = -8.2; protection from cisplatin (shift in death), siRNA C (%) = -8.3
SOX1 (SRY-box transcription factor 1) [SID131521902] | two-siRNA summed score (-2 to +2) = 1; mean protection from cisplatin (shift in death) (%) = 15.4; protection from cisplatin (shift in death), siRNA C (%) = -7.9
ACTN2 (actinin alpha 2) [SID131520053] | two-siRNA summed score (-2 to +2) = 1; mean protection from cisplatin (shift in death) (%) = 8.5; protection from cisplatin (shift in death), siRNA C (%) = 3.9
CHAF1A (chromatin assembly factor 1 subunit A) [SID131516436] | two-siRNA summed score (-2 to +2) = 0; mean protection from cisplatin (shift in death) (%) = 10.9; protection from cisplatin (shift in death), siRNA C (%) = 18.9
BNIP2 (BCL2 interacting protein 2) [SID131519054] | two-siRNA summed score (-2 to +2) = 1; mean protection from cisplatin (shift in death) (%) = 1.7; protection from cisplatin (shift in death), siRNA C (%) = -11

Additional entries:
gene symbol | PubChem SID | two-siRNA summed score (-2 to +2) | mean protection from cisplatin (shift in death) (%) | protection from cisplatin (shift in death), siRNA C (%)
GCLC (glutamate-cysteine ligase catalytic subunit) | SID131500684 | -1 | -17.8 | -11.4
RAB40B (RAB40B, member RAS oncogene family) | SID131509838 | 0 | 2.6 | 1.5
NSUN6 (NOP2/Sun RNA methyltransferase 6) | SID131516044 | 0 | 10.2 | 13.9
CALR (calreticulin) | SID131503063 | 0 | -14.4 | -24.7
ARHGEF7 (Rho guanine nucleotide exchange factor 7) | SID131517523 | 0 | 13.7 | 15.7
TBC1D3B (TBC1 domain family member 3B) | SID131511663 | 0 | 4.6 | 0
ZBTB48 (zinc finger and BTB domain containing 48) | SID131518941 | 1 | -2.3 | -20.7
PRR30 (proline rich 30) | SID131508923 | 0 | 1.6 | 7.7
CYTH4 (cytohesin 4) | SID131502326 | -1 | -3.4 | 11.4
MB (myoglobin) | SID131500943 | -1 | -14 | -10.3
TRAK2 (trafficking kinesin protein 2) | SID131500453 | -1 | -28.1 | -27.6
LOC400723 | SID131519566 | 1 | 6.3 | 12.3
FAM186B (family with sequence similarity 186 member B) | SID131507786 | 0 | 0.3 | -5.2
LOC442226 | SID131511081 | 0 | 4 | 2
SOX5 (SRY-box transcription factor 5) | SID131502383 | -1 | -2.8 | 9.4
AICDA (activation induced cytidine deaminase) | SID131511170 | 0 | 4 | 10.4
CHTOP (chromatin target of PRMT1) | SID131513097 | 0 | 6.2 | 1
NTSR2 (neurotensin receptor 2) | SID131503502 | 0 | -9.5 | -7.9
TRNAU1AP (tRNA selenocysteine 1 associated protein 1) | SID131514510 | 0 | 7.9 | 1.8
LUC7L3 (LUC7 like 3 pre-mRNA splicing factor) | SID131506835 | 0 | -0.9 | -0.9
LOC400949 | SID131504288 | 0 | -5.9 | -5.9
LOC442602 | SID131508202 | 0 | 0.8 | -0.4
PHGDH (phosphoglycerate dehydrogenase) | SID131505078 | 0 | -3.8 | 5.2
LOC402221 (actin beta pseudogene) | SID131510308 | 0 | 3.1 | 6.3
ANO10 (anoctamin 10) | SID131508552 | 0 | 1.2 | -2.9
LOC439967 | SID131506056 | 0 | -2.1 | 2.1
DTX4 (deltex E3 ubiquitin ligase 4) | SID131502878 | 0 | -20.5 | 8.6
NUDT9 (nudix hydrolase 9) | SID131500673 | -1 | -17.9 | 6.3
PTRH1 (peptidyl-tRNA hydrolase 1 homolog) | SID131517507 | 0 | 13.7 | 19.7
ICMT (isoprenylcysteine carboxyl methyltransferase) | SID131508191 | 0 | 0.7 | 5
RBM17 (RNA binding motif protein 17) | SID131508795 | 0 | 1.5 | -3.7
OR2T11 (olfactory receptor family 2 subfamily T member 11) | SID131521669 | 1 | 14.4 | 7.8
LOC440310 | SID131521424 | 1 | 13.4 | 13.6
LOC441333 | SID131513594 | 0 | 6.8 | 8.2
KAT5 (lysine acetyltransferase 5) | SID131500969 | -1 | -13.7 | -0.3
KAT5 (lysine acetyltransferase 5) | SID131501521 | -1 | -9.2 | -6.7
TDRD5 (tudor domain containing 5) | SID131517165 | 0 | 12.6 | 10.2
EIF2S3 (eukaryotic translation initiation factor 2 subunit gamma) | SID131509256 | 0 | 2 | -5.1
PPP4R3A (protein phosphatase 4 regulatory subunit 3A) | SID131517312 | 0 | 13 | 19.6
VIT (vitrin) | SID131512000 | 0 | 5 | 0.7
KCNK9 (potassium two pore domain channel subfamily K member 9) | SID131510720 | 0 | 3.5 | 9
PHF14 (PHD finger protein 14) | SID131512383 | 0 | 5.4 | 2.2
